Values from PubChem BioAssay AID504786 (Drosophila RNAi Screening Center, 2011).

Screen: 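Knock-downs reducing HIF reporter induction by the iron chelator DFO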 (primary screen)
System: Drosophila S2 cells with a stable HIF luciferase reporter
Reagents: long dsRNA against Drosophila genes, about 0.2 µg dsRNA per well of a 384-well plate
Duration: three days of knock-down, then 20 h of DFO before reading
Conditions: desferrioxamine (DFO) at 100 µM, an iron chelator that mimics hypoxia, for 20 h
Detection: 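Firefly luciferase driven by the mouse ldh-a hypoxia-response element, measured after 20 h of 100 µM DFO; z-scores per plate, higher means more signal lost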
Direction: z-score: higher = stronger loss of HIF reporter signal
The deposit covers about 21,000 reagents; below is an unselected part of those that have a named target and a result. 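Primary screen; positive scores mean lost reporter signal, so the sign may be inverted from the usual convention.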 Not all columns of the deposit are shown.

| Gene | DRSC id | z-score, replicate 1 |
| --- | --- | --- |
| Gr59b | DRSC04179 | -0.2 |
| CG10912 | DRSC06009 | -0.1 |
| CG17776 | DRSC18136 | -0.4 |
| aos | DRSC11323 | -0.4 |
| CR18228 | DRSC15317 | 0.1 |
| CG42564 | DRSC12518 | 0 |
| CG3434 | DRSC10365 | -0.3 |
| Noc2 | DRSC03165 | -0.1 |
| CG9747 | DRSC16554 | -0.3 |
| Lst8 | DRSC18262 | -0.3 |
| CG14105 | DRSC10107 | -0.3 |
| JMJD5 | DRSC08372 | -0.2 |
| CG31460 | DRSC14370 | -0.4 |
| Oli | DRSC02866 | -0.3 |
| CG31462 (retired record) | DRSC14359 | -0.3 |
| Acer | DRSC01852 | -0.3 |
| CG34337 | DRSC18435 | -0.3 |
| CG17362 | DRSC10267 | -0.2 |
| Cals | DRSC17196 | -0.3 |
| CG13337 | DRSC06371 | -0.2 |
| CG42355 | DRSC07967 | 0.6 |
| CG33630 | DRSC14546 | -0.2 |
| Pglym87 | DRSC15252 | -0.4 |
| CG31789 | DRSC01645 | 0.7 |
| NO66 | DRSC18252 | -0.1 |
| RpL36 | DRSC18708 | 5.8 |
| CG7910 | DRSC16341 | 0.1 |
| Nrx-IV | DRSC11238 | -0.2 |
| Rexo5 | DRSC10981 | -0.2 |
| RabX1 | DRSC04678 | -0.3 |
| dpr1 | DRSC05906 | 0.3 |
| dpr1 | DRSC06399 | -0.4 |
| Task6 | DRSC16530 | -0.3 |
| CG34302 | DRSC12751 | -0.2 |
| CG7248 | DRSC10788 | -0.3 |
| Ge-1 | DRSC02938 | -0.6 |
| CG5961 | DRSC15927 | -0.4 |

Continued; the last 3 above are carried over.
| Gene | DRSC id | z-score, replicate 1 |
| --- | --- | --- |
| CG7248 | DRSC10788 | -0.3 |
| Ge-1 | DRSC02938 | -0.6 |
| CG5961 | DRSC15927 | -0.4 |
| Dscam4 | DRSC08911 | 0.5 |
| Dscam4 | DRSC08913 | -0.3 |
| Dscam4 | DRSC10031 | 0 |
| Dscam4 | DRSC10329 | 1.8 |
| Dscam4 | DRSC10765 | -0.3 |
| CG2772 | DRSC00530 | -0.2 |
| Lim1 | DRSC17752 | -0.3 |
| Lim1 | DRSC18677 | -0.2 |
| ea | DRSC16939 | -0.4 |
| Start1 | DRSC04384 | -0.1 |
| Marcal1 | DRSC02718 | -0.1 |
| ND-ACP | DRSC08724 | -0.1 |
| CG4743 | DRSC15636 | -0.2 |
| CG4691 | DRSC01950 | -0.2 |
| unc-13-4A | DRSC10201 | -0.3 |
| unc-13-4A | DRSC10202 | -0.3 |
| unc-13-4A | DRSC10203 | 3.7 |
| unc-13-4A | DRSC11013 | -0.2 |
| CG12439 | DRSC02168 | -0.3 |
| CG14423 | DRSC17920 | -0.2 |
| Poxn | DRSC05589 | -0.2 |
| Poxn | DRSC07512 | -0.2 |
| CG6984 | DRSC07013 | -0.1 |
| msl-3 | DRSC11371 | -0.2 |
| Arl6IP1 | DRSC14231 | -0.4 |
| CG1504 | DRSC20513 | -0.4 |
| Ttc30 | DRSC01300 | -0.5 |
| Ttc30 | DRSC02818 | -0.2 |
| Snmp1 | DRSC16168 | 0.9 |
| CG13398 | DRSC02268 | -0.4 |
| CG8814 | DRSC00707 | -0.4 |
| GstE11 | DRSC06926 | -0.3 |
| pgc | DRSC04099 | -0.1 |
| CG32512 | DRSC20519 | -0.5 |
| CG32512 | DRSC20551 | -0.5 |
| Rab32 | DRSC05146 | 0 |
| Rab32 | DRSC07522 | -0.4 |
| CG1265 | DRSC08288 | -0.3 |
| CG18480 | DRSC01957 | -0.1 |
| sgg | DRSC17228 | -0.3 |
| sgg | DRSC17722 | -0.2 |
| sgg | DRSC18832 | -0.2 |
| Snx16 | DRSC06984 | -0.4 |
| CG15628 | DRSC00256 | -0.3 |
| CG15628 | DRSC00463 | -0.3 |
| Gr57a | DRSC06401 | -0.4 |
